Results are given as percent effect. The record does not define 0% and 100%; most values in the screen are far below 50% and negative numbers occur (in some assays of this library far below -100). The compounds are a random part of those screened.

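Whole-cell growth test on Mycobacterium tuberculosis, read after 3 days in glucose-containing 7H9 medium; the read-out is not stated. Tested at 500 µM. Higher reads as more growth inhibition (inferred: compounds with an IC50 in retests scored well above the rest). Size under these conditions: about 18,000 compounds, about 1,400 of them at 50% or above in at least one test.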

compound,percent effect
CCOc1cccc(CCN)n1,93.01
COc1ncccc1CNS(=O)(=O)c1cccc(Cl)c1,71.16
CCN(CC)C(=O)c1cc(O)nc2c(C)cccc12,0.8825
CCN(C(=O)NCCc1ccco1)C(C)CS(C)(=O)=O (stereo not given),-0.3282
Cc1ccc(OCC(=O)N(C)C)c(C)c1,33.72
NS(=O)(=O)N1CCC(C(=O)N2CCCCCC2)CC1,-4.729
N#Cc1cccc(OCCn2cnc(C#N)n2)c1,55.93
COc1cc(CCNC(=O)[C@H]2CCC(=O)N2)ccc1C,10.48
CNC(=O)c1ccc(N2CCOCC2)c(F)c1,-13.28
Cn1ccc(C(=O)NCc2cccs2)cc1=O,8.468
O=C(c1ccc(O)cc1F)N1CCOC2(CCCC2)C1,34.36
O=C(CSc1nnc[nH]1)NCc1ccc(Br)c(F)c1,10.97
Fc1ccc(C2CCNC2)nc1 (stereo not given),11.06
COCC(=O)Nc1c[nH]nc1C1CCCNC1 (stereo not given),0.7751
O=C(CNC(=O)NCC1CC1)NCCc1ccccc1,-1.924
O=C(c1ccccc1Cl)N1CCNCC1,-6.24
Cc1nc(C(C)NC(=O)c2ccc3cc[nH]c3c2)n[nH]1 (stereo not given),0.9669
Cc1nnc(CN2CCCCC2c2ccccn2)o1 (stereo not given),8.616
CC(C)(O)C1CCCN1C(=O)c1n[nH]c2ccccc12 (stereo not given),-15.18
c1cc(N2CCCC2)ncc1CN1CCCSCC1,-0.8188
CN(C)S(=O)(=O)NC1CCCOc2c(Cl)cccc21 (stereo not given),55.58
Cc1ccc(C(=O)NCCCN2CCCC2)cc1,22.83
COc1ccc(C(=O)NCC2(C)COC2)c(F)c1F,3.276
Cc1cc(NC(=O)CCN(C)CC2(O)CCCC2)no1,15.93
NC1CC(N2CCOCC2)C1 (stereo not given),3.078
COCCC1CN(C(=O)Cc2cccc(O)c2)CCO1 (stereo not given),16.46
CC(C)OCCCNC(=O)C1(C)CCCCN1 (stereo not given),0.511
CC(C)Sc1nc(-c2ccccn2)no1,63.43
CCOC(=O)NCCNC(=O)c1ccc(O)c(Cl)c1,23.79
N#Cc1cccc(CN2CCn3ccnc3C2)c1,0.5001
CCN(CC(N)=O)C(=O)CC(C)(O)c1ccccc1 (stereo not given),7.073
CN1C(=O)CC(C(=O)NCCc2nccn2C)C1(C)C (stereo not given),-9.182
Cc1noc(OCC(=O)N(C)Cc2ccc(F)cc2)n1,13.23
CC(CO)NC(=O)c1nn(C)cc1N (stereo not given),4.296
Cc1cccc(Cn2c(CN)n[nH]c2=O)c1,23.76
COC(=O)c1sc(N)nc1C,-7.442
c1ccc(NCCN2CCOCC2)cc1,8.561
CCN1C[C@H](NC(=O)c2cnc(SC)nc2)[C@@H](OC)C1,49.66
OCc1cncc(C(F)(F)F)c1,8.586
N#C[C@@H]1CN2CCOC[C@H]2CO1,17.12
CNC(=O)CN(c1ccc(Cl)cc1Cl)S(C)(=O)=O,8.982
CN(C)S(=O)(=O)NCCNc1ccc2ccccc2n1,71.64
O=C(c1ccc(CN2CCOCC2)cc1)N1CCCC1,16.05
O=C(C1CCC1)N1CCCC1c1cccnc1 (stereo not given),-4.409
NCCCc1cccs1,5.64
NC(=O)CCN1CCCC1,-10.05
CC1(C)CNC(=O)CN1C(=O)CC(F)(F)F,15.65
CCC(C(=O)Nc1ncc(C)[nH]1)N1CCCC1=O (stereo not given),-8.009
Cn1cc(CC(N)CO)cn1 (stereo not given),7.229
O=S(=O)(Cc1ccncc1)Cc1cccc(Cl)c1,23.49
Cc1n[nH]c(C)c1CN1CCCC(O)(CO)CC1 (stereo not given),1.509
CNC(=O)NC(C)(C)C(=O)Nc1ccc2c(c1)CCC2,9.798
Cc1cc(C)cc(OCCNC(=O)CSCC(N)=O)c1,55.72
Cc1ccccc1NC(=O)CCN1CCN(C)CC1,6.223
O=C(CN(CCO)C1CC1)NC1CCN(C2CC2)CC1,8.928
CC(C)NC(=O)CNCc1ccccc1OC(F)F,23.48
O=C(c1cn2ccsc2n1)N1CC=CC1CO (stereo not given),19.4
COCC(=O)N1CCN(C(C)C(=O)NC(C)(C)C)CC1 (stereo not given),2.317
CC(=O)c1ccc(C(=O)NCC(=O)C(C)(C)C)cc1,32.14
O=C(CCNCCO)c1ccccc1,97.02
O=C(NC1CCc2ccccc21)c1cc[nH]n1 (stereo not given),31.09
CC(C(=O)NC(N)=O)N1CCN(c2cnccn2)CC1 (stereo not given),9.617
CN1CC(C(=O)N2CCOc3ccccc3C2)CC1=O (stereo not given),8.483
Cc1cc(C(=O)NCCCN(C)C)c(C)o1,8.227
CC(N)c1cc(F)ccc1N1CCC(O)CC1 (stereo not given),7.169
Cc1noc(C)c1S(=O)(=O)N[C@@H]1CCOC[C@H]1O,6.162
O=C(Cc1ccc2c(c1)OCO2)N[C@H]1C[C@@H]2OCC[C@H]12,-9.297
O=C1CC(CNc2ncccn2)c2ccccc2N1 (stereo not given),21.12
NCC1(CC(N)=O)CCCCC1,18.55
O=C(NCCOc1ncccc1Cl)c1cc(Cl)c[nH]1,80.13
O=C(O)C1CN(Cc2ccc(CN3CCCCC3)s2)C1,-2.735
Cc1noc(CCNC(=O)c2cnc(C)c(Br)c2O)n1,2.637
CC1CN(C)CCN1Cc1nc(N)nc(N(C)C)n1 (stereo not given),-5.896
CC(C)c1nnc(NC(=O)N(C)C)s1,9.125
O=C(NC[C@H]1CCc2ccccc2O1)[C@H]1CCCN1,30.17
O=C(CC(F)(F)F)Nc1cnccn1,5.125
NC(=O)c1nccn1Cc1ccccc1,26.91
COCc1n[nH]c(N)c1-c1ccc(OC)cc1,30.76
COCCC1(CO)CCCN(Cc2cnc(C)cn2)C1 (stereo not given),11.33
O=C(Cn1cnnn1)Nc1cccc(-n2cccc2)c1,-11.4
COCCN(C)C(=O)Nc1ncc(C)s1,7.892
CC(C)=CCO[C@@H]1COCC[C@H]1NC(=O)CN(C)C,8.002
CC(=O)c1cc[nH]n1,-7.747
NC(=O)c1cnc(N)s1,-9.531
CNC(=O)N1CCC(Oc2cccnc2)C1 (stereo not given),-4.764
CNC(=O)CN(C)C1CCCc2ccccc21 (stereo not given),-3.271
O=C(NCC1CCCO1)N(CC(F)F)C1CC1 (stereo not given),-1.384
O=C(CN(C1CCCC1)C1CC1)N1CCNC1=O,9.698
Cc1csc(CCNC(=O)CNC(=O)C(C)(C)C)n1,-3.158

The last 5 entries again:

For CNC(=O)N1CCC(Oc2cccnc2)C1 (stereo not given) the result was -4.764%.
For CNC(=O)CN(C)C1CCCc2ccccc21 (stereo not given) the result was -3.271%.
For O=C(NCC1CCCO1)N(CC(F)F)C1CC1 (stereo not given) the result was -1.384%.
For O=C(CN(C1CCCC1)C1CC1)N1CCNC1=O the result was 9.698%.
For Cc1csc(CCNC(=O)CNC(=O)C(C)(C)C)n1 the result was -3.158%.

Measurements from “University of Dundee, Small-Polar-MMV Screening Library” (2021), ChEMBL document CHEMBL3988442.